Laboratory results: US20220033507A1
No constants are given. Whether binding was seen depends on the method and setting. Some binding calls cover weakened binding; strength is not graded here. For some assays here: Where a sequence is shown, tags or fusion partners need not be part of it.

T1: NLRP3 peptide FUS_746_001 (free, unconjugated)
T1 sequence (peptide): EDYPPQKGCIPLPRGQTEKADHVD

B1: Anti-NLRP3 monoclonal antibody produced from clone F226 7A7-1E1-2D5 (antibody, V domains shown)
VH: EVQLVESGGGLVKPGGSLKLSCAASGFTFSDYYMYWVRQTPEKRLEWVATISDGGTYTYYPDSVKGRFTISRDNAKNNLYLQMNSLKSEDTAMYYCARGWVSTMVKLLSSFPYWGQGTLVTVSA
VL: QAVVTQESALTTSPGETVTLTCRSSTGAVTTSNYANWVQEKPDHLFTGLIGGTNNRAPGVPARFSGSLIGDKAALTITGAQTEDEAIYFCALWYSNYWVFGGGTKLTVLG
B2: Anti-IL-1R1 monoclonal antibody produced from clone F237 5D1-1A8-2A5 (antibody, V domains shown)
VH: QIQLVQSGPELRKPGETVRISCKASGYPFTTAGLQWVQKMSGKGLKWIGWMNTQSEVPKYAEEFKGRIAFSLETAASTAYLQINNLKTEDTATYFCAKSVYFNWRYFDVWGAGTTVTVSS
VL: DIVMTQSPATLSVTPGDRVSLSCRASQSISDYLSWYQQRSHESPRLIIKYASQSISGIPSRFSGSGSGSDFTLSINSVEPEDVGVYYCQHGHSFPLTFGSGTKLELKR

Assays:
[1] = target: T1, NLRP3 peptide FUS_746_001 (free, unconjugated); experiment: ELISA of hybridoma supernatants on coated NLRP3 peptide, APO-A1 as negative control
IL-1R1 Fc fusion protein = experiment: ELISA of hybridoma supernatants on coated IL-1R1, APO-A1 as negative control

Binder	binding [1]	binding (IL-1R1 Fc fusion protein)
B1	binds	–
B2	–	binds
